In PMC11188874, “HDAC6 Inhibition Releases HR23B to Activate Proteasomes, Expand the Tumor Immunopeptidome and Amplify T-cell Antimyeloma Activity” (Cancer Research Communications, 2024):
These are yes or no findings as the source states them, for the method shown. Binding seen in cells or lysates may run through a third protein. Some binding calls cover weakened binding; strength is not graded here.

Protein sequences, listed by entry. Tags and fused reporters are not part of them.
UniProt Q9UBN7: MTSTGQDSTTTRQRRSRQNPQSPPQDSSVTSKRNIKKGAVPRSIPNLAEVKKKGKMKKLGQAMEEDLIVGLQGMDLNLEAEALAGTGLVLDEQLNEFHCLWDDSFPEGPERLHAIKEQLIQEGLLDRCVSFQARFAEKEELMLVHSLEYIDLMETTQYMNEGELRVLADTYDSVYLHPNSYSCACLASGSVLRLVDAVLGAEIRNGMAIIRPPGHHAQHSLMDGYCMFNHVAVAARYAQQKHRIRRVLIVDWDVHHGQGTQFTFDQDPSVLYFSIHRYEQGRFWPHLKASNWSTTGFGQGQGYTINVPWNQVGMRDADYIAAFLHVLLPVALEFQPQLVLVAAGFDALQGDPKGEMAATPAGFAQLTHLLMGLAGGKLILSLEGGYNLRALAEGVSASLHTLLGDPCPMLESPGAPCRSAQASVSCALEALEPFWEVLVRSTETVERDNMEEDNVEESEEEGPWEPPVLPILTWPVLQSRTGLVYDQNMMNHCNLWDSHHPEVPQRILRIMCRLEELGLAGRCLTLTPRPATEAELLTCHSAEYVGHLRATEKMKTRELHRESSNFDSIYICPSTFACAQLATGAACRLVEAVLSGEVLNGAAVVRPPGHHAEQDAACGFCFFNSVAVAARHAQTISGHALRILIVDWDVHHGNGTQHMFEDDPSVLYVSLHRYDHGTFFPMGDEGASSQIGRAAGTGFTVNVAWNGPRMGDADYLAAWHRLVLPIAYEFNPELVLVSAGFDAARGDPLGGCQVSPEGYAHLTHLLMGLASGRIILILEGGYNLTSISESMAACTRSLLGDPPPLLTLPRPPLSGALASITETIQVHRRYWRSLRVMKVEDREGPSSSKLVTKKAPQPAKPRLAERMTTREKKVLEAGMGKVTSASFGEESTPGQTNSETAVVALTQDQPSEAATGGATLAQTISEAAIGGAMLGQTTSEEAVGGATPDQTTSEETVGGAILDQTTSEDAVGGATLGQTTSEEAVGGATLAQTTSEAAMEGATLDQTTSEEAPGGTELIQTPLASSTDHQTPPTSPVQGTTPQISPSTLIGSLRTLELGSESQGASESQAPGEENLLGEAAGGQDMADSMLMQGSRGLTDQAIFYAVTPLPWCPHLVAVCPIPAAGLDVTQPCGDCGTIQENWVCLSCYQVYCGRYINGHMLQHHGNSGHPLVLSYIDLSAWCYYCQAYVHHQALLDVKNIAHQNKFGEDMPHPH
UniProt O00487: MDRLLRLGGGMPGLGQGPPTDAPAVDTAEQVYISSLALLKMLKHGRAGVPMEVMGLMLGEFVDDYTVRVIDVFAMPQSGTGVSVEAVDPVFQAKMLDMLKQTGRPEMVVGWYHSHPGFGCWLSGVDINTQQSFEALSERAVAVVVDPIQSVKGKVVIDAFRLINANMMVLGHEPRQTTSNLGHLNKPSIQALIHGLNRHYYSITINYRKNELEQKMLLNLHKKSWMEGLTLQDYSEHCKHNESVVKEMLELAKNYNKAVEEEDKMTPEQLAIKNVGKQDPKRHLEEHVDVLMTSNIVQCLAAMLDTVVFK
UniProt P54725: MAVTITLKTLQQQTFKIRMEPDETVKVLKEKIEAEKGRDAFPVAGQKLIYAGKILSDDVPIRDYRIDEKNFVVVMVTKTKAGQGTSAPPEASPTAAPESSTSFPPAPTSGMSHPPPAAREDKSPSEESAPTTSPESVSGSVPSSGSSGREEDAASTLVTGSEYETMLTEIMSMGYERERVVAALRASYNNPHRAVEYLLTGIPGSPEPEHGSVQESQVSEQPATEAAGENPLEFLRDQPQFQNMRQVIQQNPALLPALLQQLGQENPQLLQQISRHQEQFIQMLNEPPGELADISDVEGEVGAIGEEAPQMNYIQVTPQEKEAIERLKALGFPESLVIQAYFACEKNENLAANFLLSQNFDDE
UniProt P54727: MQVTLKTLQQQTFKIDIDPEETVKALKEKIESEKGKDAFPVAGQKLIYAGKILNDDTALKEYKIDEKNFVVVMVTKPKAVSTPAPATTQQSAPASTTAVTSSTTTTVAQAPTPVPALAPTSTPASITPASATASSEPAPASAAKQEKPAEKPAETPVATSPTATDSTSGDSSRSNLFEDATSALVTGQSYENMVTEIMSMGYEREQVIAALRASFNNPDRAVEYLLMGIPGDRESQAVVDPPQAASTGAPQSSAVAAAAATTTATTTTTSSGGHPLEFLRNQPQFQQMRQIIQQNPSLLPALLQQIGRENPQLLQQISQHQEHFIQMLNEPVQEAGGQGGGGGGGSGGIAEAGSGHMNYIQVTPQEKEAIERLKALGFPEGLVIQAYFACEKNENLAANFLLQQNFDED

Assays:
[1] = biological target: full-length, WT FLAG-tagged HDAC6 (in RPMI-8226 cells) (human) (UniProt Q9UBN7); experiment: co-IP; RPMI-8226 cells transfected with FLAG-tagged HDAC6, treated or not with HDAC6 inhibitors (1 µmol/L, 24 hours); lysates under nondenaturing conditions; precipitated with a FLAG-specific antibody; blots probed for HR23A and HR23B
[2] = biological target: FLAG-tagged full-length, WT HDAC6 (pcDNA-HDAC6-FLAG) (human) (UniProt Q9UBN7); experiment: co-IP; HeLa HDAC6-KO cells transfected with FLAG-tagged HDAC6 constructs, harvested after 48 hours; lysates under nondenaturing conditions; Pierce anti-DYKDDDDK affinity resin 2 hours at 4°C, elution with 3X DYKDDDDK peptide; immunoblots with anti-FLAG or HR23B antibodies
[3] = biological target: Flag-HA-PSMD14 (UniProt O00487); experiment: co-IP; RPMI-8226 cells expressing FLAG-tagged PSMD14, treated or not with HDAC6 inhibitors; precipitated with a FLAG-specific antibody; blots probed for HR23A and HR23B

binding [1] | binding [2] | binding [3] | Substance
binds |  |  | HR23A (endogenous, RPMI-8226) (from UniProt P54725 1-363)
 | binds |  | HR23B (endogenous, HeLa) (from UniProt P54727 1-409)
binds |  | binds | HR23B (endogenous, RPMI-8226) (from UniProt P54727 1-409)
